From the supplement of paper PMC12823440, “Inhibitors supercharge kinase turnover through native proteolytic circuits” (Nature, 2025)
Counter-ions that a name gives are not always drawn. The list shows a part of the results. The calls rarely recur for the same compound in another form.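 Kinases, fused to nanoluciferase, were expressed in K562 cells; luminescence was measured every 4 h from 2 to 18 h as percent of control (DMSO = 100%, positive control = 0%). A time point is decreased if signal falls significantly (2 sigma). Hits were called by the authors by a rule that is not shown; the count of time points alone does not decide it.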

Protein sequences, listed by entry. Tags and fused reporters are not part of them. Lines headed by an entry give the natural chain unless they say otherwise; changes in a name come on top.
UniProt Q9UQM7, whole entry: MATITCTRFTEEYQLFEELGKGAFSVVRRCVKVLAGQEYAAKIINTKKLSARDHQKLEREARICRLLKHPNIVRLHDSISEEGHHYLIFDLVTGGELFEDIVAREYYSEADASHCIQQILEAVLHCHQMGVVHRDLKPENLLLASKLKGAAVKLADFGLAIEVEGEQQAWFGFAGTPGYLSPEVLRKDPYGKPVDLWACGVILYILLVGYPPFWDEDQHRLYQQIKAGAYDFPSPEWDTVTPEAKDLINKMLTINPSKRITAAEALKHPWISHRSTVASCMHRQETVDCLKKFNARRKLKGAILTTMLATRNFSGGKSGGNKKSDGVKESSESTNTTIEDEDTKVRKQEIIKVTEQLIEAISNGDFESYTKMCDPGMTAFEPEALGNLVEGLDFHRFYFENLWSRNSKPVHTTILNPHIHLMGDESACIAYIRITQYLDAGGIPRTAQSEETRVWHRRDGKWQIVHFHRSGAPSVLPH
UniProt Q13555: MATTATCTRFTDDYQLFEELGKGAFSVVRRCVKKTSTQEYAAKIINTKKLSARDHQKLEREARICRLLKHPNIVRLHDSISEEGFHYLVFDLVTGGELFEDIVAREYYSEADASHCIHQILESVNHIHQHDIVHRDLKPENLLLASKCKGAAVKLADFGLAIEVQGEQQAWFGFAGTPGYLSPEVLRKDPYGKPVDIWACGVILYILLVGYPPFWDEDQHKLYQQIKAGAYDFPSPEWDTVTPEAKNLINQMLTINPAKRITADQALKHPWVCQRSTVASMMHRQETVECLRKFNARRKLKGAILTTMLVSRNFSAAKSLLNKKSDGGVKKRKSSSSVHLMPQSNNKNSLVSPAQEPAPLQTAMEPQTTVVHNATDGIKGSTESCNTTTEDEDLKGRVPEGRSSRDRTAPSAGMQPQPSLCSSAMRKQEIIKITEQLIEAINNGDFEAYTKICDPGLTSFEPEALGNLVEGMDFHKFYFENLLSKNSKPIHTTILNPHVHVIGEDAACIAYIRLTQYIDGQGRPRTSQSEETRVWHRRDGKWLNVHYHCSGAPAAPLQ
UniProt Q00526: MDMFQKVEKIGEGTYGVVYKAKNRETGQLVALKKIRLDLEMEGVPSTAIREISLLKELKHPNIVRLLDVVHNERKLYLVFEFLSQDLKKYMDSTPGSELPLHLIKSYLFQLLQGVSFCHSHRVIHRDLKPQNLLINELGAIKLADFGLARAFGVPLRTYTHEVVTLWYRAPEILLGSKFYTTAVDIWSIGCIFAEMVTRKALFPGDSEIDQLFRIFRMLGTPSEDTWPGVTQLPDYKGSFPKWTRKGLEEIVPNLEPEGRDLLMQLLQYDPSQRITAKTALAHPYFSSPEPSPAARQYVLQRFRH
UniProt P11802: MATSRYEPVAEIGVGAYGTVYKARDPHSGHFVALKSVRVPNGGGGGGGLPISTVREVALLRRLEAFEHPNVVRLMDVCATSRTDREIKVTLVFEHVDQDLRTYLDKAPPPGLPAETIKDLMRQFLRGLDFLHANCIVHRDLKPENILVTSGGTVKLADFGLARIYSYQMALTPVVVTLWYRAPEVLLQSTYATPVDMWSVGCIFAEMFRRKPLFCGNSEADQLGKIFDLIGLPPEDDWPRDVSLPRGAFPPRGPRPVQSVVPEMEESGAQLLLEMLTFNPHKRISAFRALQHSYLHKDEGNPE
UniProt Q00534, whole entry: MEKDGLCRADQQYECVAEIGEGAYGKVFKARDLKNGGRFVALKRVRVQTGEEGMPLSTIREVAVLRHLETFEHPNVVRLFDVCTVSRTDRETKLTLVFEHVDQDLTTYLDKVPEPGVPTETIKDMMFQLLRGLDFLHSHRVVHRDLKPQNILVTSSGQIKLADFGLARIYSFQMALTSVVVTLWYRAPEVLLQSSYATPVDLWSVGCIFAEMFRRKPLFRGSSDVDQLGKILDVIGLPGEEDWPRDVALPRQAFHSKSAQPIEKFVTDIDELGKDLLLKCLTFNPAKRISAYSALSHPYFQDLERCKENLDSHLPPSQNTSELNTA
UniProt P50613: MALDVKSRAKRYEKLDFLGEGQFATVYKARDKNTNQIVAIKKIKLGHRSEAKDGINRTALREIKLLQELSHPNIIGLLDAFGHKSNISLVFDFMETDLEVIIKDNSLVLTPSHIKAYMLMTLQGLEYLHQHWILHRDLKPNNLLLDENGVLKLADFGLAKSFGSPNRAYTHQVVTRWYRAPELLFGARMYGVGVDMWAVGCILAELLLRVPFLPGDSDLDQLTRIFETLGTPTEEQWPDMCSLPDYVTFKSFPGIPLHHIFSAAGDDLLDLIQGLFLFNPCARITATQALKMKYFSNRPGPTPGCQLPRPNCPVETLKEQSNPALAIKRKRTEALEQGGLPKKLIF
UniProt O96017, whole entry: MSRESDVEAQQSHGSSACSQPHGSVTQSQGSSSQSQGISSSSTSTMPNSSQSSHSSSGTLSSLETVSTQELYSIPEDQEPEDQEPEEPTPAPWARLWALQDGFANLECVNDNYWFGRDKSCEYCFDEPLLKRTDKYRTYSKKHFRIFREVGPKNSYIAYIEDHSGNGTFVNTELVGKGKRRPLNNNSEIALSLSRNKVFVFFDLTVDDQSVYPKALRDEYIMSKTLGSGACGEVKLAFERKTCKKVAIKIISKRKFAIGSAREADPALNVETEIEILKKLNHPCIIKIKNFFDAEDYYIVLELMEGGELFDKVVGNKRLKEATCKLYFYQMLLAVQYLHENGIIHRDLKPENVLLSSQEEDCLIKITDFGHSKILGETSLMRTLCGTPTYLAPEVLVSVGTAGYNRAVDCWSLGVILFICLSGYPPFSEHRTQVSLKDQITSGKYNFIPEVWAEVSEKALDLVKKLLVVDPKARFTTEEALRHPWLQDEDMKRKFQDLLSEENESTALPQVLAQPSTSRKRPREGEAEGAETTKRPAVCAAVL
UniProt P07333, whole entry: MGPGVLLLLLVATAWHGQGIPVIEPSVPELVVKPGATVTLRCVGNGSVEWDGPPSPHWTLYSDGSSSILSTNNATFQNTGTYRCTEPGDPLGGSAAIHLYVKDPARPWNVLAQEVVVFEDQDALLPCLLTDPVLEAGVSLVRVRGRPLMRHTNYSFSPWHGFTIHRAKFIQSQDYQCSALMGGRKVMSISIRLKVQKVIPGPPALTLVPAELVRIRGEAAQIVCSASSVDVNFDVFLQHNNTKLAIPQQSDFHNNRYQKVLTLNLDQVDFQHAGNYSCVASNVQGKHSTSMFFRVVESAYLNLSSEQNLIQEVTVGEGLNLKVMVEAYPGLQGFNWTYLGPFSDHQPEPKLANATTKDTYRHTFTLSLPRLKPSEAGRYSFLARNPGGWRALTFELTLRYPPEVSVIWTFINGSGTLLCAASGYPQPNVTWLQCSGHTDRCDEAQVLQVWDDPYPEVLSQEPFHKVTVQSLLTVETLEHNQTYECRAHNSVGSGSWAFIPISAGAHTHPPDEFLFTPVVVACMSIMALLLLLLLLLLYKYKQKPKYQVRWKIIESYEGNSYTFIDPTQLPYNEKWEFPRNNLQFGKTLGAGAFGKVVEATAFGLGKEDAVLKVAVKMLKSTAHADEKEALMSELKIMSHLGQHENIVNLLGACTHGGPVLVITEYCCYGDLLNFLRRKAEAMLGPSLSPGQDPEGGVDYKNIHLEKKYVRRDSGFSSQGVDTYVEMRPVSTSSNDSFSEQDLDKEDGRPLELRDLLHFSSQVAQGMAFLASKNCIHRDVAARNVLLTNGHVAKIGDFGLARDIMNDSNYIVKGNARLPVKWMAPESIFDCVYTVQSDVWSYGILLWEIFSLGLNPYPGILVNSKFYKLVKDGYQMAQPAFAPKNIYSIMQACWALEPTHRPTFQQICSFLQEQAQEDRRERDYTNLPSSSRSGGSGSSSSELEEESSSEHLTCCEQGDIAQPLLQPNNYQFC
UniProt P41240: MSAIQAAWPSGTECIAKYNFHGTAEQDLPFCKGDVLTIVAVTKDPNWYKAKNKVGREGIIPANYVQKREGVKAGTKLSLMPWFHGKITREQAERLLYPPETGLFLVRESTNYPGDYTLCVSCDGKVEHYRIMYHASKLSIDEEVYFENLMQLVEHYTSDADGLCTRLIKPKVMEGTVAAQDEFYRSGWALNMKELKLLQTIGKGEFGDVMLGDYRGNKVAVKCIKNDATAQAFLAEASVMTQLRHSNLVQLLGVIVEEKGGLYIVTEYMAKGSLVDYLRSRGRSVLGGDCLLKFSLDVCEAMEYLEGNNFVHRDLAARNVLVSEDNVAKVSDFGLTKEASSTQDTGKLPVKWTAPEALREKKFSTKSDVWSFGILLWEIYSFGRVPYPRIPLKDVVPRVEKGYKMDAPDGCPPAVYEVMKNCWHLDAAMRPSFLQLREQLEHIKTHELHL
UniProt P48729: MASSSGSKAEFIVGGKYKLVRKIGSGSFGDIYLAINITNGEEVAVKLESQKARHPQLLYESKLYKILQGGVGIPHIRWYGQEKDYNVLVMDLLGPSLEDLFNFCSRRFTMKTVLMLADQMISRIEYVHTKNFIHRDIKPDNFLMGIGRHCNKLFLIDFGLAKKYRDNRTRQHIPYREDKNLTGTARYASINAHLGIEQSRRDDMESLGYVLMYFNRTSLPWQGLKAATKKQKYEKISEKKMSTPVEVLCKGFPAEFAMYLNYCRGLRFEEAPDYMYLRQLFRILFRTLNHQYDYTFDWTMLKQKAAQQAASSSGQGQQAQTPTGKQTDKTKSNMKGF
UniProt P48730: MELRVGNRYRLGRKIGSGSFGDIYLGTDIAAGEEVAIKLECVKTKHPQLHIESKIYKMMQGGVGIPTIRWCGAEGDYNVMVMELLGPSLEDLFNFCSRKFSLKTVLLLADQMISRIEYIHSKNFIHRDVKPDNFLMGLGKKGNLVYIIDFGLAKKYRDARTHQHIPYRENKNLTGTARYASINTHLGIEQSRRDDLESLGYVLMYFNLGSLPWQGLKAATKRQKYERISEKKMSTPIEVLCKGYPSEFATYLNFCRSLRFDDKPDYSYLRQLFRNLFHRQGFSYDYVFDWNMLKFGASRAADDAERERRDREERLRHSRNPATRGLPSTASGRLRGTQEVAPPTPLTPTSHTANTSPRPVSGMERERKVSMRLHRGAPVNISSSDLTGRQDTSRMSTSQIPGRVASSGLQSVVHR
UniProt Q08345: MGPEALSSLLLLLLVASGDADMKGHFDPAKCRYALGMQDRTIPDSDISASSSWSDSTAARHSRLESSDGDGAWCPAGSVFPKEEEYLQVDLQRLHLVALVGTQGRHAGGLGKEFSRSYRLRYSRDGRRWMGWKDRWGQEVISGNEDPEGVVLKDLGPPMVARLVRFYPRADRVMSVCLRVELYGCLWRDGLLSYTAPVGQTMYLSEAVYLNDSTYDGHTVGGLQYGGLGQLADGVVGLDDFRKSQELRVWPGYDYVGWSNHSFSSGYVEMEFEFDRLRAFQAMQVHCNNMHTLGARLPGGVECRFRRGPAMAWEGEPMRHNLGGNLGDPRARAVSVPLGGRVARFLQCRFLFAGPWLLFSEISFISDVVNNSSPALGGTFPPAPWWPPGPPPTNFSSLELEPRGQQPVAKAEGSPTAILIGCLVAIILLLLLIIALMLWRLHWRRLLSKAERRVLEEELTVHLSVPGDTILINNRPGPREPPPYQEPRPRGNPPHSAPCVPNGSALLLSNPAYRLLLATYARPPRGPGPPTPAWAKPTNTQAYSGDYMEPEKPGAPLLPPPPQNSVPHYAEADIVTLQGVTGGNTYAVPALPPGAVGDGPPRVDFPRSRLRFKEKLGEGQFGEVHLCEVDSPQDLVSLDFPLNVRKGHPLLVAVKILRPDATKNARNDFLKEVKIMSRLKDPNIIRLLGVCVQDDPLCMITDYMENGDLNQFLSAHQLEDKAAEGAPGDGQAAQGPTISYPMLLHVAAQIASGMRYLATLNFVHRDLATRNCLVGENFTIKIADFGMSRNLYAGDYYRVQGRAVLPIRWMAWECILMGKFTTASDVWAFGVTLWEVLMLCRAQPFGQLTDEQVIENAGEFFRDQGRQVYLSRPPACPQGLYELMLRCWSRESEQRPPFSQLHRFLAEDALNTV
UniProt Q92630: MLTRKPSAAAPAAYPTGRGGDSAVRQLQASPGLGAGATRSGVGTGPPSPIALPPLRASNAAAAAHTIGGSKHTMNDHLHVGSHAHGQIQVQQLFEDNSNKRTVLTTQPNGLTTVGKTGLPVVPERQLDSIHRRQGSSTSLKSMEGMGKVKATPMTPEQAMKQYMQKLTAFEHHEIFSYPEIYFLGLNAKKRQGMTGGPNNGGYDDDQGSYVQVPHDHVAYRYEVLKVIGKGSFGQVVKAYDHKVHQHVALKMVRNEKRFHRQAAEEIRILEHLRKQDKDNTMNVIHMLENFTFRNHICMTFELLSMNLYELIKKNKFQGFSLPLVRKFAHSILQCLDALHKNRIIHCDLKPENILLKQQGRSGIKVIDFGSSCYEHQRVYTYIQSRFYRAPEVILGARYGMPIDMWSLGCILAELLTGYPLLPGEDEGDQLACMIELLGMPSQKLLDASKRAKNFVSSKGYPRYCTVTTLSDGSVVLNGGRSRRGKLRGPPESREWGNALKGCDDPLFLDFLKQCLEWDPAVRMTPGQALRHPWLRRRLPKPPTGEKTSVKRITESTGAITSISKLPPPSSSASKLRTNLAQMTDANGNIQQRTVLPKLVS

Legend:
Assay in all cases: kinase-Nluc reporter destabilization hit call (1 = scored as downregulated) (binary); higher = compound decreases kinase abundance
Conditions in all cases: K562; 2-18 h
BRAF_V600E = tested on: BRAF_V600E
BTK = BTK (UniProt Q06187)
CAMK2A = CAMK2A (UniProt Q9UQM7)
CAMK2G = CAMK2G (UniProt Q13555)
CDK10 = CDK10 (UniProt Q15131)
CDK2 = CDK2 (UniProt P24941)
CDK3 = CDK3 (UniProt Q00526)
CDK4 = CDK4 (UniProt P11802)
CDK5 = CDK5 (UniProt Q00535)
CDK6 = CDK6 (UniProt Q00534)
CDK7 = CDK7 (UniProt P50613)
CDK9 = CDK9 (UniProt P50750)
CHEK2 = CHEK2 (UniProt O96017)
CSF1R = CSF1R (UniProt P07333)
CSK = CSK (UniProt P41240)
CSNK1A1 = CSNK1A1 (UniProt P48729)
CSNK1D = CSNK1D (UniProt P48730)
DDR1 = DDR1 (UniProt Q08345)
DYRK1B = DYRK1B (UniProt Q9Y463)
DYRK2 = DYRK2 (UniProt Q92630)

Measured: kinase-Nluc reporter destabilization hit call

C[C@@H]1CCc2ncc(F)cc2[C@H]2CCCN2c2ccn3ncc(c3n2)C(=O)N1 [Selitrectinib] (10 µM)
inactive: BRAF_V600E 0 | BTK 0 | CAMK2A 0 | CAMK2G 0 | CDK10 = 0 | CDK2 = 0 | CDK3 = 0 | CDK4 = 0 | CDK5 = 0 | CDK6 = 0 | CDK7 = 0 | CDK9 = 0 | CHEK2 = 0 | CSF1R 0 | CSK 0 | CSNK1A1 = 0 | CSNK1D 0 | DDR1 = 0 | DYRK1B 0 | DYRK2 = 0

CCCCNC(=N)NC(=N)N [Buformin (hydrochloride)] (2.5 µM)
inactive: BRAF_V600E 0 | BTK 0 | CAMK2A 0 | CAMK2G 0 | CDK10 = 0 | CDK2 = 0 | CDK3 = 0 | CDK4 = 0 | CDK5 = 0 | CDK6 = 0 | CDK7 = 0 | CDK9 = 0 | CHEK2 = 0 | CSF1R 0 | CSK 0 | CSNK1A1 = 0 | CSNK1D 0 | DDR1 = 0 | DYRK1B 0 | DYRK2 = 0

COc1ccc(CNc2nc(N(CCO)CCO)nc3c2ncn3C(C)C)cc1 (2.5 µM)
inactive: BRAF_V600E 0 | BTK 0 | CAMK2A 0 | CAMK2G 0 | CDK10 = 0 | CDK2 = 0 | CDK3 = 0 | CDK4 = 0 | CDK5 = 0 | CDK6 = 0 | CDK7 = 0 | CDK9 = 0 | CHEK2 = 0 | CSF1R 0 | CSK 0 | CSNK1A1 = 0 | CSNK1D 0 | DDR1 = 0 | DYRK1B 0 | DYRK2 = 0

O=C(Nc1cccc(-c2nncn2C2CC2)c1)c1cc(-n2cnc(C3CC3)c2)ccn1 (10 µM)
inactive: BRAF_V600E 0 | BTK 0 | CAMK2A 0 | CAMK2G 0 | CDK10 = 0 | CDK2 = 0 | CDK3 = 0 | CDK4 = 0 | CDK5 = 0 | CDK6 = 0 | CDK7 = 0 | CDK9 = 0 | CHEK2 = 0 | CSF1R 0 | CSK 0 | CSNK1A1 = 0 | CSNK1D 0 | DDR1 = 0 | DYRK1B 0 | DYRK2 = 0

COC(=O)[C@@]1(C)CC[C@]2(C(=O)O)CC[C@]3(C)C(=CC[C@@H]4[C@@]5(C)C[C@H](O)[C@H](O[C@@H]6OC[C@@H](O[C@@H]7O[C@H](CO)[C@@H](O)[C@H](O)[C@H]7O)[C@H](O)[C@H]6O)[C@@](C)(CO)[C@@H]5CC[C@]43C)[C@@H]2C1 [Esculentoside A] (10 µM)
inactive: BRAF_V600E 0 | BTK 0 | CAMK2A 0 | CAMK2G 0 | CDK10 = 0 | CDK2 = 0 | CDK3 = 0 | CDK4 = 0 | CDK5 = 0 | CDK6 = 0 | CDK7 = 0 | CDK9 = 0 | CHEK2 = 0 | CSF1R 0 | CSK 0 | CSNK1A1 = 0 | CSNK1D 0 | DDR1 = 0 | DYRK1B 0 | DYRK2 = 0

Already shown: 2 of the compounds above.
C[C@@H]1CCc2ncc(F)cc2[C@H]2CCCN2c2ccn3ncc(c3n2)C(=O)N1 [Selitrectinib] (10 µM)
inactive: BRAF_V600E 0 | BTK 0 | CAMK2A 0 | CAMK2G 0 | CDK10 = 0 | CDK2 = 0 | CDK3 = 0 | CDK4 = 0 | CDK5 = 0 | CDK6 = 0 | CDK7 = 0 | CDK9 = 0 | CHEK2 = 0 | CSF1R 0 | CSK 0 | CSNK1A1 = 0 | CSNK1D 0 | DDR1 = 0 | DYRK1B 0 | DYRK2 = 0

CCCCNC(=N)NC(=N)N [Buformin (hydrochloride)] (2.5 µM)
inactive: BRAF_V600E 0 | BTK 0 | CAMK2A 0 | CAMK2G 0 | CDK10 = 0 | CDK2 = 0 | CDK3 = 0 | CDK4 = 0 | CDK5 = 0 | CDK6 = 0 | CDK7 = 0 | CDK9 = 0 | CHEK2 = 0 | CSF1R 0 | CSK 0 | CSNK1A1 = 0 | CSNK1D 0 | DDR1 = 0 | DYRK1B 0 | DYRK2 = 0

The results go on.

O=C(CCCCCn1cc(Nc2ncc(Cl)c(Nc3ccc(Cl)cc3)n2)cn1)NO (2.5 µM)
inactive: BRAF_V600E 0 | BTK 0 | CAMK2A 0 | CAMK2G 0 | CDK10 = 0 | CDK2 = 0 | CDK3 = 0 | CDK4 = 0 | CDK5 = 0 | CDK6 = 0 | CDK7 = 0 | CDK9 = 0 | CHEK2 = 0 | CSF1R 0 | CSK 0 | CSNK1A1 = 0 | CSNK1D 0 | DDR1 = 0 | DYRK1B 0 | DYRK2 = 0

COc1cc(-c2cc(-c3cc(OC)c(OC)c(OC)c3)cc(C(F)P(=O)(OCOC(=O)C(C)(C)C)OCOC(=O)C(C)(C)C)c2)cc(OC)c1OC (stereo not given) [Stafia-1-dipivaloyloxymethyl ester] (2.5 µM)
inactive: BRAF_V600E 0 | BTK 0 | CAMK2A 0 | CAMK2G 0 | CDK10 = 0 | CDK2 = 0 | CDK3 = 0 | CDK4 = 0 | CDK5 = 0 | CDK6 = 0 | CDK7 = 0 | CDK9 = 0 | CHEK2 = 0 | CSF1R 0 | CSK 0 | CSNK1A1 = 0 | CSNK1D 0 | DDR1 = 0 | DYRK1B 0 | DYRK2 = 0

CCOc1c([C@H](C)n2nc(C)c3c(N)ncnc32)cc(Cl)c(F)c1[C@@H]1CNC(=O)C1 [Parsaclisib (hydrochloride)] (10 µM)
inactive: BRAF_V600E 0 | BTK 0 | CAMK2A 0 | CAMK2G 0 | CDK10 = 0 | CDK2 = 0 | CDK3 = 0 | CDK4 = 0 | CDK5 = 0 | CDK6 = 0 | CDK7 = 0 | CDK9 = 0 | CHEK2 = 0 | CSF1R 0 | CSK 0 | CSNK1A1 = 0 | CSNK1D 0 | DDR1 = 0 | DYRK1B 0 | DYRK2 = 0

N#Cc1ccc(-c2c(-c3ncn[nH]3)sc(N3CCOCC3)c2C#N)c(F)c1 (10 µM)
inactive: BRAF_V600E 0 | BTK 0 | CAMK2A 0 | CAMK2G 0 | CDK10 = 0 | CDK2 = 0 | CDK3 = 0 | CDK4 = 0 | CDK5 = 0 | CDK6 = 0 | CDK7 = 0 | CDK9 = 0 | CHEK2 = 0 | CSF1R 0 | CSK 0 | CSNK1A1 = 0 | CSNK1D 0 | DDR1 = 0 | DYRK1B 0 | DYRK2 = 0
